The series deals with 3D7 strain of Plasmodium falciparum. Description: In vitro antiplasmodial activity (SYBR Green, 48 h). The settings on record: SI = CC50 (THP-1) / IC50 (P. falciparum 3D7). The format is cell-based. As to the method:
Continuous in vitro cultures of asexual erythrocyte stages of P. falciparum, chloroquine-sensitive 3D7 strain was maintained according to the procedure of Trager and Jensen. Strains were obtained from ATCC, Bei Resources. The host cells were human red blood cells (A+). […] Compound stock solutions were prepared in DMSO at 10 mg/mL (for an extract) and 1 mg/mL (for an isolated compound). Then, the solution is directly diluted in the medium; each test sample was applied in a series of eight 2-fold dilutions in a 96-well plate, starting with 100 µg/mL and 10 µg/mL for the crude extract and purified compounds, respectively, and tested in triplicate. The effect of compounds on the parasite growth was estimated, after 48 h incubation, by using the SYBR Green, a DNA intercalating compound. Artemisinin (Sigma-Aldrich, Machelen, Belgium), at an initial concentration of 100 ng/mL, was used as positive control in all experiments. The half-maximal inhibitory concentration (IC50) values were calculated from graphs.

Structures are written as SMILES.

Our source for the SI values is paper PMC8125995, “In Vitro Antiplasmodial and Cytotoxic Activities of Compounds from the Roots of Eriosema montanum Baker f. (Fabaceae)” (Molecules, 2021).

In turn, `O=c1c(-c2ccc(O)cc2)coc2cc(O)cc(O)c12` [Compound 7, genistein] registered an SI of 15.0.
